Changes are numbered by the printed parent chain. No constants are given. Whether binding was seen depends on the method and setting. For some assays here: Binding calls can cover weak binding; strength is not graded here. For some assays here: Binding seen in cells or lysates may run through a third protein. For some assays here: Sequences can lack the tags named with a protein.

The source of these data is article PMC3285579.

Assay [1] deals with T1, VAB-1 kinase region (669 aa-985 aa), wild type, two-hybrid bait (C. elegans) (UniProt O61460).
T1 sequence: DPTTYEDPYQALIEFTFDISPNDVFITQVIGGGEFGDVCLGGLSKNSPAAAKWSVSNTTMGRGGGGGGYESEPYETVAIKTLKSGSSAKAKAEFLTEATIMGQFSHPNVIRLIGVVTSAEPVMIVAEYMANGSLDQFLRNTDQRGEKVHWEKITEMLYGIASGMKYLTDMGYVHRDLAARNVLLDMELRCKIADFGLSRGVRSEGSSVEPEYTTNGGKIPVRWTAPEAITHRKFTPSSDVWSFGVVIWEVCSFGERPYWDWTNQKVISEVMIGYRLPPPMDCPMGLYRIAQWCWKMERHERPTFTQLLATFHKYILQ
Put plainly: two-hybrid; directed assays: pGBKT7 bait, pGADT7 prey; beta-galactosidase activity measured qualitatively by X-GAL overlay.

Assay [2] addresses T2, VAB-1 kinase region (669 aa-985 aa) Y673E, two-hybrid bait (C. elegans) (UniProt O61460).
T2 sequence: T1 sequence with Y5E
Described as above.

Assay [3] has as its target GST-NCK-1 F.L., full length NCK-1 (1 aa-397 aa) (C. elegans). The assay can be described thus: pull-down; same experiment as a5 (Figure 5A), pair His-VAB-1 with GST-NCK-1: His-VAB-1 from soluble extract or co-expressed with GST-NCK-1 F.L.; detected with anti-VAB-1.
For assay [4] the target is unchanged. Put plainly: pull-down; MBP pull-down (Figure 6A): MBP-WSP-1 from soluble extract bound to amylose resin beads; soluble extracts of GST-NCK-1 F.L., His-VAB-1, or GST-NCK-1 F.L. co-expressed with His-VAB-1 as load; 2-3 hours at 4°C; washed four times (20 mM Tris-Cl pH 7.5, 200 mM NaCl, 1 mM EDTA, 1 mM DTT).

Turning to “MIG-10 SH2 domain, two-hybrid prey (C. elegans) (domain or fragment)”, the binding result in assay [1] was “no binding”. With “NCK-1 SH2 domain, two-hybrid prey (C. elegans) (domain or fragment)”, the binding entry is “binds” in assay [1] and “no binding” in assay [2].

B1: His-6::VAB-1 (581 aa-1117 aa) (domain or fragment, UniProt O61460 581-1117)
chain: QKKSKNRKQMSDLDVLDTYKQDSMTPDYHTTSRHHHHQGNLPATLHEQLRSTTKLNAPLIPSFGSPISQPPPYYGGVHPNSGKYKTYVDPTTYEDPYQALIEFTFDISPNDVFITQVIGGGEFGDVCLGGLSKNSPAAAKWSVSNTTMGRGGGGGGYESEPYETVAIKTLKSGSSAKAKAEFLTEATIMGQFSHPNVIRLIGVVTSAEPVMIVAEYMANGSLDQFLRNTDQRGEKVHWEKITEMLYGIASGMKYLTDMGYVHRDLAARNVLLDMELRCKIADFGLSRGVRSEGSSVEPEYTTNGGKIPVRWTAPEAITHRKFTPSSDVWSFGVVIWEVCSFGERPYWDWTNQKVISEVMIGYRLPPPMDCPMGLYRIAQWCWKMERHERPTFTQLLATFHKYILQPTLIEHDPGELPRRVQSQSALNTYGSVNVGVVPTPPSSAAPMPSLDDFLRQIGLNHVYGQLVSNNIHSVSDLANTSHLDLLAYGLMSAECSTVRDGLNGRISGSPPGSSGTIHATTRGTRTTRPPREEGFFV
In the case of B1, the binding entry in assay [3] and in assay [4] was “binds” each time.
